Library screen at single concentrations

The filed quantity is “Percent Effect” (%).
The record does not define 0% and 100%; most values in the screen are far below 50% and negative numbers occur (in some assays of this library far below -100).
Compounds were drawn at random from those tested, without regard to their results.

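Assay of Toxoplasma gondii numbers, read through their beta-galactosidase reporter with a colour substrate. Concentration: 50 µM. The record gives no direction; the compounds picked for IC50 retests had high values, so higher reads as fewer parasites. Size under these conditions: about 18,000 compounds, about 170 of them at 50% or above in at least one test.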

Result for CC(NC(=O)C1(N)Cc2ccccc2C1)C1CC1 (stereo not shown) was 4.862%.
Result for CCOC(=O)c1ccc(S(=O)(=O)N2CCNCC2)o1 was -1.215%.
Result for NCC1CCN(Cc2cc(=O)c3cc(F)ccc3[nH]2)C1 (stereo not shown) was -12.49%.
Result for NCCCC(=O)N(Cc1ccccc1F)C1CCC1 was 15.42%.
Result for NC(=O)c1ccc(CN2CCCC2=O)cc1 was -12.54%.
Result for CN1N=C(C(=O)NC2(C)CCS(=O)(=O)C2)CCC1=O (stereo not shown) was 0.2329%.
Result for NC(=O)c1ccc(CNC2CC2)c(F)c1 was -8.127%.
Result for CC(NC(=O)CSc1nc(=O)[nH]n1C)c1cccs1 (stereo not shown) was 10.04%.
Result for CCN(CC)CC(=O)Nc1ccn(CCC(N)=O)n1 was 8.465%.
Result for Cc1noc(C)c1CN(C)C(=O)NCC(C)N(C)C (stereo not shown) was 5.589%.
Result for CN(C)C(=O)CCOC(=O)c1cccc(Cl)c1 was 10.12%.
Result for COc1ccc(S(=O)(=O)n2cncn2)cc1C was -1.811%.
Result for Fc1ccc2c(c1)CNCCO2 was -8.869%.
Result for CC(C)C(N)c1nnc[nH]1 (stereo not shown) was -3.143%.
Result for CCOc1cc(C)ccc1S(=O)(=O)Nc1ccccn1 was -7.023%.
Result for CCC(=O)NC1CCNC1 (stereo not shown) was 0.4728%.
Result for COc1ccc(NC(=O)NCCN2CCOCC2)cc1 was 12.23%.
Result for CN(C)CCCn1cnc2c1c(=O)n(C)c(=O)n2C was -4.544%.
Result for CC(C)n1cc(Br)cc1C(=O)NC1=NCCS1 was -1.37%.
Result for CC(C)c1nc(CN2Cc3cnn(CCO)c3C2)co1 was -15.57%.
Result for Cc1ccc(NC(=O)CC(C)C)cc1 was -11.86%.
Result for OC1CN(Cc2ccc(OCc3ccccn3)cc2)C1 was -10.4%.
Result for COCCn1ccnc1CN1CCCC(NC(C)=O)C1 (stereo not shown) was 11.99%.
Result for COC(=O)[C@@H]1CCN[C@@H]1C(C)C was 15.03%.
Result for CNC(=O)N1CCN(c2cccc(OC)c2)CC1 was 22.87%.
Result for Cc1ccc(C(=O)N2CCC(C(C)O)CC2)c(O)c1 (stereo not shown) was -20.88%.
Result for Cc1ccc(CN2CCC(C3CCNC3)CC2)nc1 (stereo not shown) was 46.25%.
Result for CC(C)c1nc(CN(C)C(=O)CN2CCOC2=O)cs1 was -1.717%.
Result for COc1ccc(CN(C)CC2CCOCC2)cn1 was 10.78%.
Result for N#CC1COCCN1C(=O)c1ccc(SC(F)F)cc1 (stereo not shown) was 0.7037%.
Result for Cc1ncsc1C(=O)NC1CCNCC1 was 3.384%.
Result for Cn1ccc(CNC(=O)c2cccnc2C(F)(F)F)c1 was -5.195%.
Result for C=C(C)COc1c(Cl)cc(C(N)=O)cc1OC was -1.477%.
Result for CO[C@@H]1COCC[C@H]1NC(=O)CCC(F)(F)F was 3.042%.
Result for COc1ccc(C)cc1[C@@H](C)N was 7.573%.
Result for OCCN1CCN(c2ccc3nnnn3n2)CC1 was 0.916%.
Result for CCCN(CC1CCCO1)C(=O)c1ncc[nH]1 (stereo not shown) was 0.7856%.
Result for Cc1ccc(CNC(C)CCN2CCOCC2)nc1 (stereo not shown) was 0.9541%.
Result for CC(=O)c1ccc(C(=O)NC[C@@H]2C[C@H](F)CN2)s1 was -4.743%.
Result for CCC(N)C(=O)N1CCc2ccc(OC)cc2C1 (stereo not shown) was 13.01%.
Result for CCN(C)C(=O)CNc1ccccc1S(=O)(=O)CC was -2.619%.
Result for Cc1ccc(OCC(C)NC(=O)CSCC(N)=O)cc1 (stereo not shown) was -5.846%.
Result for Cc1cc(Br)ccc1C(=O)N1CCNCC1 was -0.9738%.
Result for COCC(=O)N(CC1CCCCO1)C(C)C (stereo not shown) was 17.44%.
Result for c1ccc(-n2nnnc2N2CCN(C3CC3)CC2)cc1 was -11.67%.
Result for Cc1cc(C)nc(N2CCC(C(N)=O)CC2)n1 was -23.3%.
Result for CN(C)C(=O)CSCc1ccc(C#N)cc1 was 1.721%.

The first 3 entries again:

{"smiles": "CC(NC(=O)C1(N)Cc2ccccc2C1)C1CC1", "stereo": "stereo not shown", "Percent Effect": 4.862}
{"smiles": "CCOC(=O)c1ccc(S(=O)(=O)N2CCNCC2)o1", "Percent Effect": -1.215}
{"smiles": "NCC1CCN(Cc2cc(=O)c3cc(F)ccc3[nH]2)C1", "stereo": "stereo not shown", "Percent Effect": -12.49}

The values are deposited in ChEMBL (CHEMBL3988442, “University of Dundee, Small-Polar-MMV Screening Library” (2021)).